The whole screen tested about 320,000 compounds, of which about 22,000 (6.9%) were called active. Inconclusive means that the source gave no clear call. Such entries were picked first, then a sample of the others. Calls follow the shape of the dose curve; as a rule, active = well fitted inhibition curve with a large enough effect; inconclusive = small, poorly fitted or top-dose-only effect, or another doubt; inactive = no such curve, though single readings can be large or run the other way. Potencies of inconclusive entries are doubtful fits and often do not repeat.
Test: Primary qHTS for delayed death inhibitors of the malarial parasite plastid, 96 hour incubation
Settings: P. falciparum luciferase reporter growth; series mostly up to 28.7 µM
In short: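 Two-generation exposure (96 h) targets delayed-death phenotype. Reporter parasites carrying integrated firefly luciferase, in red cells at 2% hematocrit and 0.05% parasitemia final, kept at 37 C, 5% CO2; luminescence loss indicates inhibition.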
Potency is read from the fitted curve at half-maximal effect.

Row | Compound | Potency
1 | CCCOc1cccc(C2C(C(=O)c3ccc(C)o3)=C(O)C(=O)N2c2nc(C)c(C(C)=O)s2)c1 (stereo not given) | inconclusive: 18.5 µM [inhibitor, single point]
2 | Cc1ccc(/C=N/NC(=O)CN2CCN(S(=O)(=O)c3ccc(Br)cc3)CC2)s1 | inconclusive: 18.5 µM [inhibitor, single point]
3 | Cc1cc(N2CCOCC2)nc(C(C)C)n1 | inconclusive: 0.0021 µM [inhibitor, full curve, poor fit]
4 | NS(=O)(=O)c1ccc(S(=O)(=O)N2CCCC2)cc1 | inconclusive: 20.8 µM [inhibitor, partial curve, poor fit]
5 | CCOC(=O)c1c(CS(=O)(=O)c2ccccc2)n(C)c2cc(Br)c(O)cc12 | inactive
6 | O=[N+]([O-])c1ccc(Cl)cc1CNc1ccc(F)c(F)c1 | active: 8.28 µM
7 | C/C(CC(=O)Nc1ccc(Cl)c(Cl)c1)=N\NC(=O)C(=O)N1CCCCC1 | inactive
8 | CCC(C)(C)NC(=O)CN(Cc1ccc2c(c1)OCO2)C(=O)CCC(=O)Nc1ccccn1 | inactive
9 | O=c1[nH]c2ccc(Cl)cc2c(-c2ccccc2)c1N1CCN(CCO)CC1 | inconclusive: 18.5 µM [inhibitor, single point]
10 | CC1(C)OC(=O)C(=NNc2ccc(C(=O)O)cc2)C(=O)O1 | inactive
11 | CCOC(=O)C1=C(C)NC2=C(C(=O)c3ccccc32)C1c1cccnc1 (stereo not given) | inactive
12 | O=C(Cc1ccc(F)cc1)NCCc1ccccc1 | inconclusive: 4.15 µM [inhibitor, single point]
13 | COc1ccc(-c2cc(=O)oc3cc(OCC(=O)NCCCn4ccnc4)ccc23)cc1 | inconclusive: 18.5 µM [inhibitor, single point]
14 | COc1cc2cc(C(c3nnnn3Cc3ccc(F)cc3)N3CCCCCC3)c(=O)[nH]c2cc1OC (stereo not given) | inconclusive: 4.15 µM [inhibitor, full curve, poor fit]
15 | CC(=O)N(C)c1nc(N)n(-c2ccccc2)n1 | inactive
16 | CC/C(C)=C1\SC(N2CCOCC2)=NC1=O | inconclusive: 2.94 µM [inhibitor, full curve, poor fit]
17 | Cc1ccc(CS(=O)(=O)CCC(=O)N2CCC3(CC2)OCCO3)cc1 | inactive
18 | CCn1cc(C(=O)N(C)c2ccccc2F)c2cc(OC)c(OC)cc2c1=O | inactive
19 | COc1ccc(C(=O)N2CCOCC2)cc1S(=O)(=O)N1CCCc2ccccc21 | inactive
20 | C=CCN(C(=O)c1csnn1)C(C(=O)NC1CCCCC1)c1ccccc1F (stereo not given) | inconclusive: 3.29 µM [inhibitor, partial curve]
21 | CC[C@@H]1[C@@H]2C[C@H]3[C@H]4N(C)c5ccccc5[C@@]45C[C@@H]([C@@H]2[C@@H]5O)N3[C@H]1O | inconclusive: 1.28 µM [inhibitor, single point]
22 | COC(=O)c1ccc(NC(=O)CSc2nnc(-c3ccncc3)n2N)cc1 | inconclusive: 18.5 µM [inhibitor, single point]
23 | O=S(=O)(c1ccc(OCC(O)CN2CCN(c3ccc(F)cc3)CC2)cc1)N1CCOCC1 (stereo not given) | active: 9.28 µM
24 | COc1ccc(OC)c(-c2csc(N(CC3CCCO3)C(=O)C3CCCCC3)n2)c1 (stereo not given) | inactive

Row | Compound | Potency
25 | Cc1cc(NC(=O)CSc2nnc(-c3ccco3)o2)no1 | inactive
26 | CC(C)NC(=O)NNc1c(Cl)cncc1Cl | inactive
27 | CCc1ccc(N=C2NC(=O)/C(=C/c3cc(OC)c(O)c(OC)c3)S2)cc1 | inactive
28 | CN1C(C(=O)c2ccccc2)=C(N)c2ccccc2S1(=O)=O | inactive
29 | Cn1c(=O)[nH]c(=O)c2c1nc(N1CCC(Cc3ccccc3)CC1)n2Cc1ccccc1 | inconclusive: 5.86 µM [inhibitor, partial curve, poor fit]
30 | COc1ccc(S(=O)(=O)N2CCN(C(=O)C3CC3)CC2)cc1 | inconclusive: 5.22 µM [inhibitor, partial curve, poor fit]
31 | CN=C(c1ccc(C)cc1)n1c(=S)nc(-c2ccc(C)cc2)n(C)c1=S | inconclusive: 18.5 µM [inhibitor, single point]
32 | Cc1cc(N)n(-c2ccccc2)n1 | inactive
33 | COc1ccc(N/N=C(/C#N)S(=O)(=O)c2nsc(C)c2C#N)cc1 | inconclusive: 2.62 µM [inhibitor, full curve, poor fit]
34 | COc1ccc(CCNC(=O)C23CN(Cc4ccccc4)CC2C(c2ccc([N+](=O)[O-])cc2)=NO3)cc1 (stereo not given) | inconclusive: 3.29 µM [inhibitor, full curve, poor fit]
35 | CS(=O)(=O)c1ncc(Cl)c(C(=O)Nc2ccc(OC(F)F)cc2)n1 | inconclusive: 18.5 µM [inhibitor, single point]
36 | CCc1nc2ccccc2n1Cc1ccccc1OC | inconclusive: 18.5 µM [inhibitor, single point]
37 | CC1Cc2cc(S(=O)(=O)N3CCN(c4ccccc4F)CC3)ccc2N1C(=O)C1CC1 (stereo not given) | inconclusive: 9.28 µM [inhibitor, partial curve]
38 | C[n+]1ccccc1/C=C/c1ccc(C#N)cc1 | inconclusive: 0.522 µM [inhibitor, partial curve, poor fit]
39 | CN(Cc1ccccc1)C(=O)CSc1nc2cc(C(=O)N3CCC(C(N)=O)CC3)ccc2c(=O)n1-c1ccccc1 | inactive
40 | CCOC(=O)/C=C1\SC(C)C(=O)N1CC(=O)N(CCC#N)c1ccccc1 (stereo not given) | inconclusive: 11.7 µM [inhibitor, single point]
41 | CN(C)CCN1C(=O)C2C(C(=O)Nc3cc(Cl)cc(Cl)c3)C3C=CC2(O3)C1C(=O)NC1CCCCC1 (stereo not given) | inconclusive: 0.522 µM [inhibitor, full curve, poor fit]
42 | O=C1Nc2ccccc2/C1=C/c1cnc[nH]1 | inconclusive: 6.57 µM [inhibitor, single point]
43 | CCNc1nnc(SCC(=O)c2c(N)n(C3CC3)c(=O)[nH]c2=O)s1 | inconclusive: 9.28 µM [inhibitor, single point]
44 | CCOc1ccc(N2C(=O)C(=O)/C(=C(/O)c3ccccc3)C2c2ccccc2[N+](=O)[O-])cc1 (stereo not given) | inconclusive: 7.38 µM [inhibitor, partial curve, poor fit]
45 | COc1ccc(C(=O)O)cc1S(=O)(=O)N1CCCc2ccccc21 | inactive
46 | CCCn1c(C)cc(/C=C(\C#N)C(=O)OCC(=O)Nc2cccc(S(N)(=O)=O)c2)c1C | inconclusive: 9.28 µM [inhibitor, single point]
47 | Cc1ccc(C(=O)NC2=NCCS2)cc1 | inactive
48 | COc1ccnc(Oc2ccc(F)cc2)c1C(=O)N/C=N/OCc1ccc(F)cc1 | inconclusive: 2.62 µM [inhibitor, full curve, poor fit]

Taken from above:
Value for CCc1ccc(N=C2NC(=O)/C(=C/c3cc(OC)c(O)c(OC)c3)S2)cc1 under Potency: inactive
Value for COc1ccc(S(=O)(=O)N2CCN(C(=O)C3CC3)CC2)cc1 under Potency: inconclusive: 5.22 µM [inhibitor, partial curve, poor fit]

Sorted by length of the SMILES (descending): three of the compounds above.
Row | Compound | Potency
34 | COc1ccc(CCNC(=O)C23CN(Cc4ccccc4)CC2C(c2ccc([N+](=O)[O-])cc2)=NO3)cc1 (stereo not given) | inconclusive: 3.29 µM [inhibitor, full curve, poor fit]
27 | CCc1ccc(N=C2NC(=O)/C(=C/c3cc(OC)c(O)c(OC)c3)S2)cc1 | inactive
48 | COc1ccnc(Oc2ccc(F)cc2)c1C(=O)N/C=N/OCc1ccc(F)cc1 | inconclusive: 2.62 µM [inhibitor, full curve, poor fit]

Continuation.

Row | Compound | Potency
49 | O=c1oc2ccccc2c(Nc2ccc3ccccc3c2)c1[N+](=O)[O-] | inconclusive: 4.65 µM [inhibitor, single point]
50 | Cc1ccc2c(Cl)c(C(=O)NCC(c3ccco3)N3CCCC3)sc2c1 (stereo not given) | inconclusive: 13.1 µM [inhibitor, single point]
51 | COc1ccccc1OCc1nnc(SCC(=O)N2CCCCC2)o1 | inactive
52 | CC(=O)Nc1ccc(NC(=O)c2c([N+](=O)[O-])c(C(C)(C)C)nn2C)cc1 | inactive
53 | CN(C)CCNC(=O)c1cc2sc3ccccc3c2s1 | inconclusive: 0.37 µM [inhibitor, partial curve, poor fit]
54 | CCCC(=O)C1=C(O)C(C(=O)OC)C(C)(C)CC1=NCc1ccccc1 (stereo not given) | active: 7.38 µM
55 | COC(=O)Cn1c(C)c(/C=C/c2cc[n+](C)cc2)c2ccccc21 | inconclusive: 18.5 µM [inhibitor, single point]
56 | CC(C#N)(NC(=O)CN1CCN(S(=O)(=O)c2ccccc2C#N)CC1)C1CC1 (stereo not given) | inconclusive: 4.15 µM [inhibitor, full curve]
57 | COc1ccc(C(CCNCc2ccc(F)cc2)c2ccc(F)cc2)cc1 (stereo not given) | inconclusive: 18.5 µM [inhibitor, single point]
58 | O=c1[nH]n(Cc2ccccc2)c2ccccc12 | inconclusive: 16.5 µM [inhibitor, single point]
59 | O=C(CSc1nnc(SCc2ccc(Cl)cc2)s1)c1ccc2c(c1)OCO2 | inconclusive: 18.5 µM [inhibitor, single point]
60 | O=C(NCc1ccccc1)c1nc(S(=O)(=O)Cc2ccccc2)ncc1Cl | inconclusive: 18.5 µM [inhibitor, single point]
61 | CCCCNCCCOc1cccc(Cl)c1Cl | inconclusive: 14.7 µM [inhibitor, partial curve, poor fit]
62 | Cc1ccccc1CN1CCCOCCS1(=O)=O | inactive
63 | O=C(c1cccc(S(=O)(=O)N2CCN(c3ccc(F)cc3)CC2)c1)N1CCCC(C(F)(F)F)C1 (stereo not given) | inconclusive: 18.5 µM [inhibitor, single point]
64 | CCN(CC(=O)Nc1cc(Cl)ccc1C)C(=O)C1CC(=O)N(Cc2ccccc2)C1 (stereo not given) | inactive
65 | CC(C(=O)N1CCCC1)N(c1ccccc1)S(C)(=O)=O (stereo not given) | inconclusive: 18.5 µM [inhibitor, single point]
66 | O=C(NNc1ncc(C(F)(F)F)cc1Cl)c1ccc(Cl)c(Cl)c1 | inconclusive: 18.5 µM [inhibitor, single point]
67 | COc1ccccc1NC(=S)N(CCc1c(C)[nH]c2ccccc12)Cc1cccs1 | inconclusive: 11.7 µM [inhibitor, single point]
68 | CSc1cccc(NC(=O)CN2C(=O)COc3ccc(S(=O)(=O)N4CCOCC4)cc32)c1 | inactive
69 | CCOc1ccc(-n2nc3c(=O)n(CCN4CCCCC4)nc(C)c3c2C)cc1 | inactive
70 | COc1ccc(C2C3=C(CCCC3=O)Nc3c(-c4ccccc4)c(C)nn32)cc1 (stereo not given) | inconclusive: 10.4 µM [inhibitor, partial curve]

Reference: PubChem BioAssay AID504834 (National Center for Advancing Translational Sciences (NCATS), 2011)
